The source of these data is article PMC10276294, “Regulatory ligand binding in plant chalcone isomerase–like (CHIL) proteins” (The Journal of Biological Chemistry, 2023).

Results are given in words; binding and its absence hold for the method and conditions named.

The experiment concerns the target Type II chalcone isomerase from Medicago sativa (MsCHI-II) (Medicago sativa) (UniProt P28012). The experiment is described as follows: native gel or EMSA; native PAGE of the purified proteins alone; about 50 mM DTT in the loading buffer; both purified. On the technique in general: In EMSA bound probe runs differently from free probe, usually more slowly.

B1: Type II chalcone isomerase from Medicago sativa (MsCHI-II) (enzyme, UniProt P28012 1-222)
chain: MAASITAITVENLEYPAVVTSPVTGKSYFLGGAGERGLTIEGNFIKFTAIGVYLEDIAVASLAAKWKGKSSEELLETLDFYRDIISGPFEKLIRGSKIRELSGPEYSRKVMENCVAHLKSVGTYGDAEAEAMQKFAEAFKPVNFPPGASVFYRQSPDGILGLSFSPDTSIPEKEAALIENKAVSSAVLETMIGEHAVSPDLKRCLAARLPALLNEGAFKIGN
Turning to B1, the binding entry is listed as “no binding”.
